Experimental data from US6962792B1, “Methods and means for inhibition of Cdk4 activity” (Cyclacel Limited, priority 1996, dated 2005).
Results are given in words; binding and its absence hold for the method and conditions named. Some results given as binding are weak or reduced against the parent protein; the word gives no strength.

Chains of the proteins cited; added tags and fusions are not shown.
UniProt P11802: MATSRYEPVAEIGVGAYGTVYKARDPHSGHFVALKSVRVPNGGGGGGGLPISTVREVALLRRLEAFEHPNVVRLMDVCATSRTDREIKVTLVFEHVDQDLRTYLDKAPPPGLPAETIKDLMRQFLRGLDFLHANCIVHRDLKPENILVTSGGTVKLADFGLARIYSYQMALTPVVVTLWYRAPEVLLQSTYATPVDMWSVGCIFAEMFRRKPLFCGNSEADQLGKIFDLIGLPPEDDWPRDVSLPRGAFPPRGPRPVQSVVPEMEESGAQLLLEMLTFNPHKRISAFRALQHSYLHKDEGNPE
UniProt P24385: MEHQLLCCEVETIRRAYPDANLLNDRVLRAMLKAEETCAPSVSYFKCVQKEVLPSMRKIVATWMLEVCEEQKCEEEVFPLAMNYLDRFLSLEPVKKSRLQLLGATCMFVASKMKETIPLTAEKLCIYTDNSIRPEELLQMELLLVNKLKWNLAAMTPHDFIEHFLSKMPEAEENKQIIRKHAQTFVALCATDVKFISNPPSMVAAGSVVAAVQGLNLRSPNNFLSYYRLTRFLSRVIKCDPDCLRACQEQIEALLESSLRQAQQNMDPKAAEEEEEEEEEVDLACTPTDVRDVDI

Key:
[1] = target: Cdk4 labelled with [35S]methionine, translated in rabbit reticulocyte lysate (human) (UniProt P11802); assay: peptide precipitation of 35S-Cdk4 from reticulocyte lysate
[2] = target: Cdk4 labelled with [35S]methionine, translated in rabbit reticulocyte lysate (human) (UniProt P11802); assay: peptide precipitation assay
[3] = target: cyclin D1 labelled with [35S]methionine, translated in rabbit reticulocyte lysate (human) (UniProt P24385); assay: peptide precipitation assay
[4] = target: cyclin D1 labelled with [35S]methionine, translated in rabbit reticulocyte lysate (human) (UniProt P24385); assay: peptide precipitation of 35S-cyclin D1 from reticulocyte lysate
[5] = target: cyclin D1 labelled with [35S]methionine, translated in rabbit reticulocyte lysate (human) (UniProt P24385); assay: peptide precipitation assay (data not shown)
[6] = target: Cdk4 labelled with [35S]methionine, translated in rabbit reticulocyte lysate (human) (UniProt P11802); assay: peptide precipitation assay (data not shown)

Row | Binder | binding [1] | binding [2] | binding [3] | binding [4] | binding [5] | binding [6]
1 | RERWNFDFVTETPLEGDFAWSGSG (Biotin-SGSG spacer at the C-terminus; free N-terminus) [peptide 4 (residues 46-65 of p21^WAF1)] | binds | binds |  |  |  | 
2 | TSMTDFYHSKRRLIFSKRKPSGSG (Biotin-SGSG spacer at the C-terminus; free N-terminus) [peptide 11 (extreme C-terminal peptide of p21^WAF1)] | binds | binds | binds | binds |  | 
3 | KACRRLFGPVDSEQLSRDCDSGSG (Biotin-SGSG spacer at the C-terminus; free N-terminus) [peptide 2 (residues 16-35 of p21^WAF1)] |  |  | binds | binds |  | 
4 | KRRQTSMTDFYHSKARLIFSSGSG (Biotin-SGSG spacer at the C-terminus; free N-terminus) [peptide 10 mutant with R-A at residue 15 of peptide 10 (residue 155 of the full length protein)] |  |  |  |  | binds | binds
5 | KRRQTSMTDFYHSKRALIFSSGSG (Biotin-SGSG spacer at the C-terminus; free N-terminus) [peptide 10 mutant with the second R of the motif RRLIF changed to A] |  |  |  |  | binds | binds
6 | KRRQTSMTDFYHSKRRLAFSSGSG (Biotin-SGSG spacer at the C-terminus; free N-terminus) [peptide 10 mutant with I of the motif RRLIF changed to A] |  |  |  |  | binds | binds
